Data as given in PubChem BioAssay AID1224830 (NIAID, 2016).

Purpose: 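Regulators of TLR4 signalling towards TNF-alpha in macrophage-like cells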 (primary screen)
System: human THP-1 monocytic leukaemia cells, TNF dual-luciferase reporter clone, PMA-differentiated to macrophage-like cells
Reagent: siRNA pool against human genes, 50 nM
Duration: LPS for 4 h, given about 3 days after siRNA transfection
Treatment: bacterial LPS (TLR4 ligand), 10 ng/ml
Detection: 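TNF firefly reporter luminescence divided by renilla, normalised to the plate median, then turned into a robust z-score for each replicate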
Scale: TNF reporter robust z-score: higher = stronger TNF reporter response to LPS
Active means: 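a well is active when its z-score exceeds 2.8 or falls below -1.5; control wells carry no call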
This is an unselected part of about 18,000 deposited reagents. In the full data, about 2,900 (16%) are marked active. 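Calls are made per well; low scores hint the gene aids the LPS response, high scores that it dampens it.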 Repeated entries: four replicate wells of each siRNA pool.

HSPA12A (heat shock protein family A (Hsp70) member 12A) — TNF reporter robust z-score: 0.04; activity call: inactive
HSPA12A (heat shock protein family A (Hsp70) member 12A) — TNF reporter robust z-score: -0.12; activity call: inactive
HSPA12A (heat shock protein family A (Hsp70) member 12A) — TNF reporter robust z-score: 1.1; activity call: inactive
HSPA12A (heat shock protein family A (Hsp70) member 12A) — TNF reporter robust z-score: -0.24; activity call: inactive
TEAD1 (TEA domain transcription factor 1) — TNF reporter robust z-score: -0.75; activity call: inactive
TEAD1 (TEA domain transcription factor 1) — TNF reporter robust z-score: 0.08; activity call: inactive
TEAD1 (TEA domain transcription factor 1) — TNF reporter robust z-score: -0.7; activity call: inactive
TEAD1 (TEA domain transcription factor 1) — TNF reporter robust z-score: 0.86; activity call: inactive
BAHCC1 (BAH domain and coiled-coil containing 1) — TNF reporter robust z-score: 2.14; activity call: inactive
BAHCC1 (BAH domain and coiled-coil containing 1) — TNF reporter robust z-score: 2.3; activity call: inactive
BAHCC1 (BAH domain and coiled-coil containing 1) — TNF reporter robust z-score: 1.61; activity call: inactive
BAHCC1 (BAH domain and coiled-coil containing 1) — TNF reporter robust z-score: 1.27; activity call: inactive
ZNF28 (zinc finger protein 28) — TNF reporter robust z-score: 0.83; activity call: inactive
ZNF28 (zinc finger protein 28) — TNF reporter robust z-score: 1.03; activity call: inactive
ZNF28 (zinc finger protein 28) — TNF reporter robust z-score: -0.18; activity call: inactive
ZNF28 (zinc finger protein 28) — TNF reporter robust z-score: 0.3; activity call: inactive
GLE1 (GLE1 RNA export mediator) — TNF reporter robust z-score: 0.87; activity call: inactive
GLE1 (GLE1 RNA export mediator) — TNF reporter robust z-score: -0.11; activity call: inactive
GLE1 (GLE1 RNA export mediator) — TNF reporter robust z-score: 0.05; activity call: inactive
GLE1 (GLE1 RNA export mediator) — TNF reporter robust z-score: -1.52; activity call: active
HNRNPL (heterogeneous nuclear ribonucleoprotein L) — TNF reporter robust z-score: 1.2; activity call: inactive
HNRNPL (heterogeneous nuclear ribonucleoprotein L) — TNF reporter robust z-score: 1.68; activity call: inactive
HNRNPL (heterogeneous nuclear ribonucleoprotein L) — TNF reporter robust z-score: -0.56; activity call: inactive
HNRNPL (heterogeneous nuclear ribonucleoprotein L) — TNF reporter robust z-score: 1.16; activity call: inactive
TMED10 (transmembrane p24 trafficking protein 10) — TNF reporter robust z-score: -1.82; activity call: active
TMED10 (transmembrane p24 trafficking protein 10) — TNF reporter robust z-score: -1.76; activity call: active
TMED10 (transmembrane p24 trafficking protein 10) — TNF reporter robust z-score: -1.73; activity call: active
TMED10 (transmembrane p24 trafficking protein 10) — TNF reporter robust z-score: -1.88; activity call: active
MYO1A (myosin IA) — TNF reporter robust z-score: -0.69; activity call: inactive
MYO1A (myosin IA) — TNF reporter robust z-score: -0.41; activity call: inactive
MYO1A (myosin IA) — TNF reporter robust z-score: -1.43; activity call: inactive
MYO1A (myosin IA) — TNF reporter robust z-score: -0.93; activity call: inactive
ZBTB1 (zinc finger and BTB domain containing 1) — TNF reporter robust z-score: -0.14; activity call: inactive
ZBTB1 (zinc finger and BTB domain containing 1) — TNF reporter robust z-score: -0.68; activity call: inactive
ZBTB1 (zinc finger and BTB domain containing 1) — TNF reporter robust z-score: 0.01; activity call: inactive
ZBTB1 (zinc finger and BTB domain containing 1) — TNF reporter robust z-score: 0.16; activity call: inactive
LPAR5 (lysophosphatidic acid receptor 5) — TNF reporter robust z-score: 0.24; activity call: inactive
LPAR5 (lysophosphatidic acid receptor 5) — TNF reporter robust z-score: -0.4; activity call: inactive
LPAR5 (lysophosphatidic acid receptor 5) — TNF reporter robust z-score: 1.47; activity call: inactive
LPAR5 (lysophosphatidic acid receptor 5) — TNF reporter robust z-score: 0.03; activity call: inactive
RBKS (ribokinase) — TNF reporter robust z-score: -0.79; activity call: inactive
RBKS (ribokinase) — TNF reporter robust z-score: -0.55; activity call: inactive
RBKS (ribokinase) — TNF reporter robust z-score: -0.5; activity call: inactive
RBKS (ribokinase) — TNF reporter robust z-score: -1.64; activity call: active
SHISA6 (shisa family member 6) — TNF reporter robust z-score: -1.11; activity call: inactive
SHISA6 (shisa family member 6) — TNF reporter robust z-score: -0.32; activity call: inactive
SHISA6 (shisa family member 6) — TNF reporter robust z-score: -1.46; activity call: inactive
SHISA6 (shisa family member 6) — TNF reporter robust z-score: -1.2; activity call: inactive
